Earlier results, collected in patent publication US20080241290A1, “Sinus relief composition and method of producing the same” (priority 2007, published 2008).
Some entries share one result that the patent states for a list of compounds. Some ranges recur; such a range may be that of the whole group of compounds.

Settings: pure capsaicinoid, Scoville scale

| SMILES | pungency (Scoville heat units) |
| --- | --- |
| COc1cc(CNC(=O)CCCCCC(C)C)ccc1O [Nordihydrocapsaicin, nordihydrocapsaicin] | 8,600,000-9,100,000 Scoville units |
| COc1cc(CNC(=O)CCCCC/C=C/C(C)C)ccc1O [homocapsaicin] | 8,600,000-9,100,000 Scoville units |
| COc1cc(CNC(=O)CCCCCCCC(C)C)ccc1O [homodihydrocapsaicin] | 8,600,000-9,100,000 Scoville units |
